Reference: PubChem BioAssay AID1224830 (NIAID, 2016)
Here is an unselected part of about 18,000 reagents tested. About 2,900 of them (16%) count as active. 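Calls are made per well; low scores hint the gene aids the LPS response, high scores that it dampens it.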 A number with no mark means an inactive call. Repeated entries: four replicate wells of each siRNA pool.

- Purpose: 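Host factors that control LPS-induced TNF expression in human macrophages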 (primary screen)
- System: human THP-1 monocytic leukaemia cells, TNF dual-luciferase reporter clone, PMA-differentiated to macrophage-like cells
- Knock-down reagent: siRNA pool against human genes, 50 nM
- Time to read-out: LPS for 4 h, given about 3 days after siRNA transfection
- Challenge: bacterial LPS (TLR4 ligand), 10 ng/ml
- Detection: 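Ratio of firefly to renilla light, scaled to the plate median and expressed as a robust z-score per replicate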
- Direction: TNF reporter robust z-score: higher = stronger TNF reporter response to LPS
- Call rule: 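Each well counts as active if its z-score is over 2.8 or under -1.5; controls are left without a call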

gene symbol | TNF reporter robust z-score
RPRD1A (GeneID 55197) | -0.81
RPRD1A (GeneID 55197) | 0.42
RPRD1A (GeneID 55197) | -0.55
RPRD1A (GeneID 55197) | 0.79
TNFRSF17 (GeneID 608) | -0.82
TNFRSF17 (GeneID 608) | -1.08
TNFRSF17 (GeneID 608) | -0.55
TNFRSF17 (GeneID 608) | -1.55 (active)
DUSP7 (GeneID 1849) | -0.61
DUSP7 (GeneID 1849) | -0.73
DUSP7 (GeneID 1849) | -0.04
DUSP7 (GeneID 1849) | -0.7
COBLL1 (GeneID 22837) | -0.05
COBLL1 (GeneID 22837) | 0.94
COBLL1 (GeneID 22837) | -0.13
COBLL1 (GeneID 22837) | -0.19
PLD2 (GeneID 5338) | 0.68
PLD2 (GeneID 5338) | 0.82
PLD2 (GeneID 5338) | 0.51
PLD2 (GeneID 5338) | -0.8
CA7 (GeneID 766) | -0.29
CA7 (GeneID 766) | -1.08
CA7 (GeneID 766) | -0.1
CA7 (GeneID 766) | -0.53
IDH1 (GeneID 3417) | 0.57
IDH1 (GeneID 3417) | 1.91
IDH1 (GeneID 3417) | 0.6
IDH1 (GeneID 3417) | 1.39
AGXT (GeneID 189) | -0.86
AGXT (GeneID 189) | -0.75
AGXT (GeneID 189) | -1.1
AGXT (GeneID 189) | -0.34
PFDN6 (GeneID 10471) | 0.42
PFDN6 (GeneID 10471) | 0.11
PFDN6 (GeneID 10471) | -0.67
PFDN6 (GeneID 10471) | 0.4
ADAMTSL3 (GeneID 57188) | 0.65
ADAMTSL3 (GeneID 57188) | -0.42
ADAMTSL3 (GeneID 57188) | -1.04
ADAMTSL3 (GeneID 57188) | -0.1
AIRIM (GeneID 54955) | -0.23
AIRIM (GeneID 54955) | 1.07
AIRIM (GeneID 54955) | 0.88
AIRIM (GeneID 54955) | 1.67
GSTM1 (GeneID 2944) | 1.05
GSTM1 (GeneID 2944) | 0.63
GSTM1 (GeneID 2944) | 0.59
GSTM1 (GeneID 2944) | 0.41
AURKA (GeneID 6790) | 0.44
AURKA (GeneID 6790) | -0.25
AURKA (GeneID 6790) | 0.08
AURKA (GeneID 6790) | 2.77
OR56A3 (GeneID 390083) | 0.44
OR56A3 (GeneID 390083) | 0.38
OR56A3 (GeneID 390083) | 1.4
OR56A3 (GeneID 390083) | 0.78
EVX1 (GeneID 2128) | -2.18 (active)
EVX1 (GeneID 2128) | -1.65 (active)
EVX1 (GeneID 2128) | 0.08
EVX1 (GeneID 2128) | -1.55 (active)
CCDC88C (GeneID 440193) | 0.64
CCDC88C (GeneID 440193) | -0.21
CCDC88C (GeneID 440193) | 0.03
CCDC88C (GeneID 440193) | 0.34
MRPS30 (GeneID 10884) | 0.31
MRPS30 (GeneID 10884) | -0.39
MRPS30 (GeneID 10884) | 0.98
MRPS30 (GeneID 10884) | 1.73
NDC80 (GeneID 10403) | -0.25
NDC80 (GeneID 10403) | 1.29
NDC80 (GeneID 10403) | -0.02
NDC80 (GeneID 10403) | 0.92
PLEKHG4 (GeneID 25894) | -1.32
PLEKHG4 (GeneID 25894) | 0.59
PLEKHG4 (GeneID 25894) | -0.78
PLEKHG4 (GeneID 25894) | 0.1

Sorted by “TNF reporter robust z-score” (lowest first): 6 of the entries above
gene symbol | TNF reporter robust z-score
GSTM1 (GeneID 2944) | 0.41
GSTM1 (GeneID 2944) | 0.59
GSTM1 (GeneID 2944) | 0.63
AIRIM (GeneID 54955) | 0.88
GSTM1 (GeneID 2944) | 1.05
AIRIM (GeneID 54955) | 1.67
